This is an account of results in publication PMC4694870.

Amino acid sequences for entries named in this document (tags omitted). A change or cut given only in a name is not applied to a line headed by its entry. Residues count along the entry.
UniProt Q00987: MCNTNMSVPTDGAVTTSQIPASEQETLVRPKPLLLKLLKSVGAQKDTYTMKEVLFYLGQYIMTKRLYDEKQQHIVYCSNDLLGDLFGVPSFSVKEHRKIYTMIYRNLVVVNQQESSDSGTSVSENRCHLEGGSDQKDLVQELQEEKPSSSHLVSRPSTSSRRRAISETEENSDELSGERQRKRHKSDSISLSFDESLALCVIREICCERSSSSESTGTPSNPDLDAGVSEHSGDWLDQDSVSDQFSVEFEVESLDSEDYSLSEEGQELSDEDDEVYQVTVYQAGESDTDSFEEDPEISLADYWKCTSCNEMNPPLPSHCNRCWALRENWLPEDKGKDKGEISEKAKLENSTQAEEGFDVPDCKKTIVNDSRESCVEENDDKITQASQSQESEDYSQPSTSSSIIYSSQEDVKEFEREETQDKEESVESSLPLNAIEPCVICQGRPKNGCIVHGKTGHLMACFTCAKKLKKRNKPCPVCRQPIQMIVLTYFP
GST-Mdm2 61-491 fragment: residues 61-491 of Q00987

These are yes or no findings as the source states them, for the method shown. In cells and extracts the contact can be indirect. Some results given as binding are weak or reduced against the parent protein; the word gives no strength. Tags and fused reporters may be left off the sequences shown.

The target in experiment [1] is GST-Mdm2 61-491 fragment (UniProt Q00987). The experiment in a line: pull-down; 20 ug of recombinant GST-Mdm2 fusion proteins on glutathione beads incubated for 3 hours with 1 mg of nuclear extract of HEK293T cells transfected with Flag-Set7/9; washes in PBS; western blotting with Set7/9 antibody; only the target purified.
In experiment [2] the target is GST-Mdm2 (full-length version) (UniProt Q00987). The experiment is described as above.

B1: Flag-Set7/9 (enzyme, UniProt Q8WTS6 1-366)
chain: MDSDDEMVEEAVEGHLDDDGLPHGFCTVTYSSTDRFEGNFVHGEKNGRGKFFFFDGSTLEGYYVDDALQGQGVYTYEDGGVLQGTYVDGELNGPAQEYDTDGRLIFKGQYKDNIRHGVCWIYYPDGGSLVGEVNEDGEMTGEKIAYVYPDERTALYGKFIDGEMIEGKLATLMSTEEGRPHFELMPGNSVYHFDKSTSSCISTNALLPDPYESERVYVAESLISSAGEGLFSKVAVGPNTVMSFYNGVRITHQEVDSRDWALNGNTLSLDEETVIDVPEPYNHVSKYCASLGHKANHSFTPNCIYDMFVHPRFGPIKCIRTLRAVEADEELTVAYGYDHSPPGKSGPEAPEWYQVELKAFQATQQK
As for B1, the figures for the binding result in experiment [1] and in experiment [2] were “binds weakly” and “binds”, respectively.
